# According to article PMC12815460, “A high-resolution analysis of arrestin2 interactions responsible for CCR5 endocytosis” (eLife, 2026):
# The chains behind the UniProt entries cited, without tags or fusion partners. Residues count along the entry.
# UniProt Q00610, residues 1-364: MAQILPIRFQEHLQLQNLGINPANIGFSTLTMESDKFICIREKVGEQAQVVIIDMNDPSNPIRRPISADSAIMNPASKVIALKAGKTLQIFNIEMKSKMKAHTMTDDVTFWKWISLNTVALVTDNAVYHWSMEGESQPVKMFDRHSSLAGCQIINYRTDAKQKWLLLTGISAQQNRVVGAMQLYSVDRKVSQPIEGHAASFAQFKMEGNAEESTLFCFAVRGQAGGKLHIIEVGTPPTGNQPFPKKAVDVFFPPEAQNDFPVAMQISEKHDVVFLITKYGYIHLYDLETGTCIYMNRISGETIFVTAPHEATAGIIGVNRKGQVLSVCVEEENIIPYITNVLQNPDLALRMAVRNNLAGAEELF
# These are yes or no findings as the source states them, for the method shown.
# B1: arrestin2^ΔCBL (arrestin2^1-418 with loop K357–D385 replaced by visual arrestin residues E365–N376) (protein)
# chain: MGDKGTRVFKKASPNGKLTVYLGKRDFVDHIDLVDPVDGVVLVDPEYLKERRVYVTLTCAFRYGREDLDVLGLTFRKDLFVANVQSFPPAPEDKKPLTRLQERLIKKLGEHAYPFTFEIPPNLPCSVTLQPGPEDTGKACGVDYEVKAFLAENLEEKIHKRNSVRLVIRKVQYAPERPGPQPTAETTRQFLMSDKPLHLEASLDKEIYYHGEPISVNVHVTNNTNKTVKKIKISVRQYADIVLFNTAQYKVPVAMEEADDTVAPSSTFSKVYTLTPFLANNREKRGLALDGKLKHEDTNLASSTLLREGANREILGIIVSYKVKVKLVVSRGGLLGDLASSDVAVELPFTLMHPKPEDPAKESYQDANIVFEDFARQRLKGMKDDKEEEEDGTGSPQLNNR
# Molecular target: clathrin-N (clathrin heavy chain 1 N-terminal domain, residues 1–364) (UniProt Q00610)
# Assay: NMR titration; 50 μM 15N,2H-labelled clathrin-N observed (1H-15N HSQC-TROSY, 900 MHz), unlabelled arrestin2 construct added up to equimolar, no phosphopeptide; 20 mM HEPES, 150 mM NaCl, pH 7.4, 303 K; both purified
binder,measurement,value
B1,binding,"no binding (tested: equimolar, 50 μM)"
